Results on one molecule are retold here after paper PMC11075139 (RSC Advances, 2024).

Molecules are shown by their SMILES.

In series [1] the test system is SH-SY5Y cells. The series can be described thus: Cell viability/neurotoxicity assay. It is filed as cell-based. The note with it: Homo sapiens, read-out: cell viability.
The conditions of series [2]: PAMPA.

In the case of `COc1cc2c(cc1OC)C(=O)C(CC1CCN(Cc3ccccc3)CC1)C2` (centres unmarked) [Donepezil, reference compound], in series [1], the viability at 5 µM is roughly 60%. In addition, the “Prediction of CNS penetration” value in series [2] is on record as “High (key: High: ‘CNS+’ (prediction of high BBB permeation); Pe (10^−6 cm s^−1) > 4.39; No: ‘CNS−’ (prediction of low BBB permeation); Pe (10^−6 cm s^−1) < 1.78)”.

In general, viability refers to a per cent measure of how many cells are alive, often set against a control.
